According to the supplement of paper PMC10849652:
This is one part of the list.

Chains of the proteins cited; added tags and fusions are not shown. Lines headed by an entry give the natural chain unless they say otherwise; changes in a name come on top.
UniProt Q7L523, whole entry, looked up: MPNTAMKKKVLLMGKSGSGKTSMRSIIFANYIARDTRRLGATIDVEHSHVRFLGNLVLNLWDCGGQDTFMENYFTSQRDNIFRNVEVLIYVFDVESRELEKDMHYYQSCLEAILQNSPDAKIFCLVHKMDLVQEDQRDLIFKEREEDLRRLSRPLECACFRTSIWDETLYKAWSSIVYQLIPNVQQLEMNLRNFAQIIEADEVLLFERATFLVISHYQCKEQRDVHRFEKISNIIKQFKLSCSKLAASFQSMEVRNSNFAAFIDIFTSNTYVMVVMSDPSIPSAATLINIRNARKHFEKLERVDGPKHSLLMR
UniProt P13489: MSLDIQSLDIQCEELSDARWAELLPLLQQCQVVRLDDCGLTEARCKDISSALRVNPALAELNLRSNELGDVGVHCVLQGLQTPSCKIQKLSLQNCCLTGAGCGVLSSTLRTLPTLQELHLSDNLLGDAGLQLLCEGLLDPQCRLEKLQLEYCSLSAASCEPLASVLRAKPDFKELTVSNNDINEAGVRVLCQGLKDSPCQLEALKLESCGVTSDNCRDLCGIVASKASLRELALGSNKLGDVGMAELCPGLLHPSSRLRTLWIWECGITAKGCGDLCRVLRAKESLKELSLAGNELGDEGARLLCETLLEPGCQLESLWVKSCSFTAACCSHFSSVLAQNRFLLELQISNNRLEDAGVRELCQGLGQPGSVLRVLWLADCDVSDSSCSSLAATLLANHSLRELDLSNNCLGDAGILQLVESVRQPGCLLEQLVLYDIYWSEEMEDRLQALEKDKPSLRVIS
UniProt P05387, whole entry, looked up: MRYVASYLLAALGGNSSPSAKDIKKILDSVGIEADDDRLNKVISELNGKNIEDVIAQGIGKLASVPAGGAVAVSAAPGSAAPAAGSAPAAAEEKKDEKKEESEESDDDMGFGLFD
UniProt P04843: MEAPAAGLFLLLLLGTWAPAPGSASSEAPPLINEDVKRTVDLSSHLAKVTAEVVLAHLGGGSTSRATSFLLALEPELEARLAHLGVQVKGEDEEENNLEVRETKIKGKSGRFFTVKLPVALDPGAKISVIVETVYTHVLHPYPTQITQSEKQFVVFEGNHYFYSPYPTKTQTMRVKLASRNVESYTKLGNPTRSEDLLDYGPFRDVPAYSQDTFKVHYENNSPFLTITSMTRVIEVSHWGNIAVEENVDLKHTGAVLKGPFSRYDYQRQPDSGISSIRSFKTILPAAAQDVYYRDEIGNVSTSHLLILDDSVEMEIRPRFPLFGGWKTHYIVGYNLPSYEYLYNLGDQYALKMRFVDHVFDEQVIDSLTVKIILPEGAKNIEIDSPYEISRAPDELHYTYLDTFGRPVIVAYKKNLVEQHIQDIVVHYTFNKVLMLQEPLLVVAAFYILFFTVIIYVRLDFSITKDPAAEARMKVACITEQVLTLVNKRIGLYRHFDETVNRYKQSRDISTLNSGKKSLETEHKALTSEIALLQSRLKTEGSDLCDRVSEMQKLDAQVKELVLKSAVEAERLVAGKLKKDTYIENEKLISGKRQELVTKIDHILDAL
UniProt P62070: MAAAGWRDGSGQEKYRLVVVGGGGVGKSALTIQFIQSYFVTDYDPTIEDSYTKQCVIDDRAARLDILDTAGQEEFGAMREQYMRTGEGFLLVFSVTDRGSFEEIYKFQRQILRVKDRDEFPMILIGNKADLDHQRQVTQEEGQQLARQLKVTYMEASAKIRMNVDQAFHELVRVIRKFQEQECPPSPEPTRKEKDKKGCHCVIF
UniProt Q9BWH6: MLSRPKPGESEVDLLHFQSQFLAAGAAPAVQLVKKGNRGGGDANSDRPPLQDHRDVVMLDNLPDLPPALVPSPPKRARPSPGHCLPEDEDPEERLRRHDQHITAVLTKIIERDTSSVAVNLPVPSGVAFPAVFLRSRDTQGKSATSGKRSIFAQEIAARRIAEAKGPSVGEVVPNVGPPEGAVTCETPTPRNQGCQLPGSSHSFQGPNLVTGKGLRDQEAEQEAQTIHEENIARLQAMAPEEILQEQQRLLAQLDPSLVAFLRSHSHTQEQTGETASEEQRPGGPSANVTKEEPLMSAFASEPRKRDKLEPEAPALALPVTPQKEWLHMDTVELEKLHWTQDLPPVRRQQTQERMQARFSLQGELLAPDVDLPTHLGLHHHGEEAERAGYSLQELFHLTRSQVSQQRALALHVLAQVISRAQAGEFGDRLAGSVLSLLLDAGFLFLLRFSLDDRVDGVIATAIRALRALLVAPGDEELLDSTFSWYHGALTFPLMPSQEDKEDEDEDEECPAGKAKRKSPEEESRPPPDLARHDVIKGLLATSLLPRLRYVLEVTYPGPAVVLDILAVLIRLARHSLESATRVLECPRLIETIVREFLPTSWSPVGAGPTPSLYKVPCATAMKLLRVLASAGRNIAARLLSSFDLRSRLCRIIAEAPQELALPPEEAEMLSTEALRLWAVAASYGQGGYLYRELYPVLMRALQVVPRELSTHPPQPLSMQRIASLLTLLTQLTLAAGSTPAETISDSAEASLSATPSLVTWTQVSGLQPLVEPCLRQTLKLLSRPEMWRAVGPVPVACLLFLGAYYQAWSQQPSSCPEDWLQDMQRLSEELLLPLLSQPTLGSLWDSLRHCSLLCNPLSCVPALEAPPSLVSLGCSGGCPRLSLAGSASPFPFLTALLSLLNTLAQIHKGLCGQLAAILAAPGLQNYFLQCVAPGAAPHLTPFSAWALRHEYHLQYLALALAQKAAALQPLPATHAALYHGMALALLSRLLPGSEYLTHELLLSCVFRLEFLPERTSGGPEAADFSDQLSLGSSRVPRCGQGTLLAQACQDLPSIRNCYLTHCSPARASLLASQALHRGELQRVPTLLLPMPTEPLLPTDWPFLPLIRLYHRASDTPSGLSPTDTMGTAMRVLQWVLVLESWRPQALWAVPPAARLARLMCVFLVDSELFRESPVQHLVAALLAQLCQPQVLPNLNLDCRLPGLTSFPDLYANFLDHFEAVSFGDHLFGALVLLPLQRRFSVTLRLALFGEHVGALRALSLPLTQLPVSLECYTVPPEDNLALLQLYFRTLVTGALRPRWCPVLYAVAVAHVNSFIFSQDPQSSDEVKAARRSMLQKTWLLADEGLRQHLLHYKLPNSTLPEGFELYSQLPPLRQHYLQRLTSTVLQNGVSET
UniProt Q9H4A4: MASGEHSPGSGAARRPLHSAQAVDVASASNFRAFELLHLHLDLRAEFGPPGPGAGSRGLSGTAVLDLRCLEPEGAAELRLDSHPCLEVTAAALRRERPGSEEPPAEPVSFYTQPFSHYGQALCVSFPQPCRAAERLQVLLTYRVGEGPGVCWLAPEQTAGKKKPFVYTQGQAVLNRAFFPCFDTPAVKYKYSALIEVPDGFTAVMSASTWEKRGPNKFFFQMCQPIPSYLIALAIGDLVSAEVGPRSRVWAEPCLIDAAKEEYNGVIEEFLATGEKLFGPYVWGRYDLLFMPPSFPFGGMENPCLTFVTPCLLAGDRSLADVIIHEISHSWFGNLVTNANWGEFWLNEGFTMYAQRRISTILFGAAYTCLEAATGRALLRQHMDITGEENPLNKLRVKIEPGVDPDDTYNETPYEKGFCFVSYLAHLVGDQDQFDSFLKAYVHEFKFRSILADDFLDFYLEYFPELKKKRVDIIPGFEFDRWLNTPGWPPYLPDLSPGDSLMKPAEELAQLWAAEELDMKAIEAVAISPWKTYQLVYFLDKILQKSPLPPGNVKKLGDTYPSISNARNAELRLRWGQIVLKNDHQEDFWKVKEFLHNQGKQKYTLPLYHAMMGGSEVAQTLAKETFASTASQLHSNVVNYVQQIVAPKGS
UniProt P05386, whole entry, looked up: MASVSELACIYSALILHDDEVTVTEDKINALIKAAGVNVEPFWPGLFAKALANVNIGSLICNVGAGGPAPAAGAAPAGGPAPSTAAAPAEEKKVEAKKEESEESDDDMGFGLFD
UniProt P10155: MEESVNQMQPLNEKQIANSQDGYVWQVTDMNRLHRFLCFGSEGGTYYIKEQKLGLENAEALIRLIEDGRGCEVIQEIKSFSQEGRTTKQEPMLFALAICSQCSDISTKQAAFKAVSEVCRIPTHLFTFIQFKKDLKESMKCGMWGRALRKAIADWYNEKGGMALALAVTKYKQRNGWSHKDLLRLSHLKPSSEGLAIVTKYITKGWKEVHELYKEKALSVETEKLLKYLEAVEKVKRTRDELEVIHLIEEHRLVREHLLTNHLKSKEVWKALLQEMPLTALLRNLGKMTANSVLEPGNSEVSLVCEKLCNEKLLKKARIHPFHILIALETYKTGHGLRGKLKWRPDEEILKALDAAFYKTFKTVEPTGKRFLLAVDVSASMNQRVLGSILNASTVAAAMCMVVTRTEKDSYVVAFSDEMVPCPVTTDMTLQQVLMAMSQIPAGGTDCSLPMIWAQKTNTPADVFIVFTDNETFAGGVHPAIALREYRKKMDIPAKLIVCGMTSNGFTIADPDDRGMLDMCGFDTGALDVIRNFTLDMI
UniProt Q969K3: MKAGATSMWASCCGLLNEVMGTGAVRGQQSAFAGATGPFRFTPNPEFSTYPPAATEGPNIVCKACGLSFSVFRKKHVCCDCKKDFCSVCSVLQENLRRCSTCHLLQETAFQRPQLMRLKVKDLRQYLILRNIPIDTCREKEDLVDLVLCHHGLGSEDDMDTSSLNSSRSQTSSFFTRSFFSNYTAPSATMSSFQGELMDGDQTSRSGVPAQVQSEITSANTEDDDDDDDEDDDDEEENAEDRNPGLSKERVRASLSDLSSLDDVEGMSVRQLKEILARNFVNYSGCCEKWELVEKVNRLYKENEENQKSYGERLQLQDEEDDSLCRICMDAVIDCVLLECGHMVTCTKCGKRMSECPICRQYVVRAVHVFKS
UniProt Q9UBF6, whole entry, looked up: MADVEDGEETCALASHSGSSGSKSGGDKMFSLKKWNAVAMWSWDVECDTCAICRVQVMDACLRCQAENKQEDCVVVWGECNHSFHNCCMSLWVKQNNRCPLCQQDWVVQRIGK

Experiments:
Experiment in all cases: log2 fold change, soluble protein after heating vs DMSO (PISA); higher = thermal stabilisation; K562 cells, 10 uM, 30 min; active = over 0.2 and 3.5 SD of the protein, either way, in both replicates (recomputed)
[1] = compound: C1=CC=C(C=C1)[C@H](COC2=CC3=C(C=C2)NC(=O)N3)NC(=O)C4=CC=CN(C4=O)CC5=CC(=C(C=C5)F)F
Summary of the method: (§1)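 Soluble protein was defined as the supernatant after 21,000xg for 90 min. It came from K562 cells at 2×10^6 cells/mL given 10 μM compound for 30 min, heated in aliquots for 3 min across 48°C-58°C, pooled, and extracted in PBS with 0.5% NP-40 at 4°C, and was quantified by TMTpro 16plex LC-MS/MS with equalised channel sums. Thermal stability against control samples, from duplicates, is reported as log2 fold change.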

[2] = compound: CC1=C(SC2=C1C(=N[C@H](C3=NN=C(N32)C)CC(=O)N)C4=CC=C(C=C4)Cl)C
Summary of the method: as §1

[3] = compound: CC1=C2C(=CC=C1)N=C(N(C2=O)C3=CC=CC=C3C)CN4C=NC5=C(N=CN=C54)N
Summary of the method: as §1

[4] = compound: Cc1sc2c(c1C)C(c1ccc(Cl)cc1)=N[C@@H](CC(=O)OC(C)(C)C)c1nnc(C)n1-2
Summary of the method: as §1

[5] = compound: c1ccc([C@@H]2C[C@H]2NC2CCNCC2)cc1
Summary of the method: as §1

Measured: log2 fold change

RPL28 (UniProt P46779)
inactive: [1] 0.244 | [2] -0.491 | [3] -0.564 | [4] 0.31 | [5] -0.001

RRAGA (UniProt Q7L523)
inactive: [1] 0.004 | [2] 0.004 | [3] -0.045 | [4] -0.035 | [5] -0.002

RNH1 (UniProt P13489)
inactive: [1] -0.055 | [2] 0.025 | [3] 0.068 | [4] -0.04 | [5] -0.032

RPLP2 (UniProt P05387)
inactive: [1] 0.142 | [2] -0.389 | [3] -0.571 | [4] 0.19 | [5] 0.031

RPS14 (UniProt P62263)
inactive: [1] 0.041 | [2] -0.162 | [3] -0.238 | [4] 0.078 | [5] -0.036

RPL15 (UniProt P61313)
inactive: [1] 0.297 | [2] -0.647 | [3] -0.728 | [4] 0.385 | [5] 0

RPS8 (UniProt P62241)
inactive: [1] 0.163 | [2] -0.268 | [3] -0.302 | [4] 0.156 | [5] 0

RPL10A (UniProt P62906)
inactive: [1] 0.253 | [2] -0.523 | [3] -0.735 | [4] 0.333 | [5] -0.001

RPL18A (UniProt Q02543)
inactive: [1] 0.239 | [2] -0.636 | [3] -0.722 | [4] 0.452 | [5] -0.001

RPN1 (UniProt P04843)
inactive: [1] -0.01 | [2] 0.052 | [3] 0.019 | [4] -0.016 | [5] 0.002

RRAS2 isoform 4 (UniProt P62070)
inactive: [1] 0.045 | [2] -0.017 | [3] -0.062 | [4] -0.03 | [5] 0.011

RPS27L (UniProt Q71UM5)
inactive: [1] 0.038 | [2] -0.035 | [3] 0.007 | [4] 0.084 | [5] -0.124

RPAP1 (UniProt Q9BWH6)
inactive: [1] -0.013 | [2] 0.071 | [3] 0.022 | [4] 0.028 | [5] -0.007

RPS20 isoform 2 (UniProt P60866)
inactive: [1] -0.002 | [2] -0.114 | [3] -0.051 | [4] 0.059 | [5] 0

RNPEP (UniProt Q9H4A4)
inactive: [1] -0.043 | [2] 0.05 | [3] 0.047 | [4] -0.015 | [5] -0.021

RPLP1 (UniProt P05386)
inactive: [1] 0.159 | [2] -0.389 | [3] -0.739 | [4] 0.172 | [5] 0.199

RPS2 (UniProt P15880)
inactive: [1] 0.123 | [2] -0.222 | [3] -0.222 | [4] 0.113 | [5] 0

Two records drawn at random from the list so far, as already listed:
RPS20 isoform 2 (UniProt P60866)
inactive: [1] -0.002 | [2] -0.114 | [3] -0.051 | [4] 0.059 | [5] 0

RPS2 (UniProt P15880)
inactive: [1] 0.123 | [2] -0.222 | [3] -0.222 | [4] 0.113 | [5] 0

Remaining list, next part

RO60 (UniProt P10155)
inactive: [1] 0.057 | [2] -0.002 | [3] 0.03 | [4] 0.026 | [5] 0.033

RNF34 isoform 2 (UniProt Q969K3)
inactive: [1] 0.022 | [2] -0.081 | [3] 0.067 | [4] 0.07 | [5] 0.062

RPS16 (UniProt P62249)
inactive: [1] 0.049 | [2] -0.149 | [3] -0.192 | [4] 0.043 | [5] -0.003

RPL17 isoform 3 (UniProt P18621)
inactive: [1] 0.27 | [2] -0.392 | [3] -0.386 | [4] 0.239 | [5] 0

RNF7 (UniProt Q9UBF6)
inactive: [1] -0.062 | [2] -0.021 | [3] 0.009 | [4] -0.024 | [5] 0.005

RPL4 (UniProt P36578)
inactive: [1] 0.237 | [2] -0.569 | [3] -0.749 | [4] 0.344 | [5] -0.001

RPL27A (UniProt P46776)
inactive: [1] 0.174 | [2] -0.473 | [3] -0.496 | [4] 0.337 | [5] 0
